{"sequences": {"note": "By UniProt entry, the sequences of proteins in these tests, tags left out. Residues count along the entry.", "UniProt P53667, 330-637": "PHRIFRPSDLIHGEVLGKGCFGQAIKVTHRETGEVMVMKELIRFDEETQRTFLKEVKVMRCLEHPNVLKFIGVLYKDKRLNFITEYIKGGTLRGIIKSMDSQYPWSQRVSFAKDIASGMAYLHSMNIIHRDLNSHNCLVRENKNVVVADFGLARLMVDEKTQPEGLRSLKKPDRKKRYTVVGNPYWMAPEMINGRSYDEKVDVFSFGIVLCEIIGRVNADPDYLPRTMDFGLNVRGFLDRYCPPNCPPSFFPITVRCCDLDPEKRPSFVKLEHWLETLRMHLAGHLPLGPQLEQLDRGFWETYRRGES", "UniProt P53671, 330-632": "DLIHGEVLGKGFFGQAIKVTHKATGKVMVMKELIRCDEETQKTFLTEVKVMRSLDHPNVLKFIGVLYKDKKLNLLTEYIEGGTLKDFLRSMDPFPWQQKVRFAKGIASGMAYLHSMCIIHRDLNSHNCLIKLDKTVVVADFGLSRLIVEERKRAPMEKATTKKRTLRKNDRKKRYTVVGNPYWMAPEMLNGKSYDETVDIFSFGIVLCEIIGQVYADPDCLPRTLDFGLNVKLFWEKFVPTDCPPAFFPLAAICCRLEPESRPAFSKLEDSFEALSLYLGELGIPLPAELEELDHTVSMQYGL"}, "source": "paper PMC6835155", "about": "“Lessons from LIMK1 enzymology and their impact on inhibitor design” (Biochemical Journal, 2019)", "key": {"LIMK1KD": {"biological_target": "T1, LIMK1KD (Homo sapiens, UniProt P53667)", "T1 construct": "His6 (N, cleaved yes); made in house; host or cells: baculovirus; Sf9 for virus, TriEx insect cells for expression", "experiment": "Differential (dynamic) scanning fluorimetry (DSF) assay, LIMK1KD", "format": "binding", "conditions": "2 µM LIMK1KD, compound 10 µM, single shot"}, "LIMK2KD": {"biological_target": "T2, LIMK2KD (Homo sapiens, UniProt P53671)", "T2 construct": "The cDNA coding for LIMK2 residues 330 to 632 was PCR amplified; His6 (N, cleaved yes); made in house; host or cells: baculovirus; Sf9 for virus, TriEx insect cells for expression", "experiment": "Differential (dynamic) scanning fluorimetry (DSF) assay, LIMK2KD", "format": "binding", "conditions": "compound 10 µM, single shot"}}}
{"smiles": "CC(C)n1nc(-c2cc3cc(O)ccc3[nH]2)c2c(N)ncnc21", "note": "[PP242]", "values": [{"measurement": "TM Shift LIMK1 (K)", "setting": "LIMK1KD", "value": 2.0, "unit": "K"}, {"measurement": "TM Shift LIMK2 (K)", "setting": "LIMK2KD", "value": 3.7, "unit": "K"}]}
